Test results published in PubChem BioAssay AID2685 (National Center for Advancing Translational Sciences (NCATS), 2010).
This is one part of the list. Shown are side measurements of this screen, not its main read-out; they come without a call. The list favours compounds with an active or inconclusive main result. Potencies come from curve fits of mixed quality, noted in brackets.

Experiment: qHTS Assay for Lipid Storage Modulators in Drosophila S3 Cells;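 on cell number change: cells counted by Cell Tracker Red CMTPX staining in the red channel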
Conditions: BODIPY lipid droplet fluorescence, 18-24 h; for cell number change: measured here: cell count max response, cells fed with added oleic acid
Method in brief: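 Drosophila S3 cells loaded with oleic acid (400 uM, as added) and compounds at several concentrations; lipid droplets imaged by 488-nm laser-scanning cytometry, 500–530 nm intensity and object ratio to cell channel. Percent activity normalized to 20 uM Triacsin C.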

[1] = measured here: lipid fluorescence (Fed channel) AC50, cells fed with added oleic acid
[2] = measured here: cell number channel AC50, cells fed with added oleic acid

| SMILES | cell number change | AC50 [1] | AC50 [2] |
| --- | --- | --- | --- |
| COc1ccc(OC)c2c1sc(=NC(=O)CN1C(=O)CCC1=O)n2C | -9.94% | – | – |
| CCOc1ccc(S(=O)(=O)N(C)CC(=O)NCc2ccccn2)cc1 | 17.8% | 8.2 µM [rising, partial curve] | – |
| CCOc1ccc(NS(=O)(=O)c2ccc(NC(=O)[C@@H]3CCCC[C@@H]3C(=O)O)cc2)cc1 | 17.5% | 29.1 µM [falling, single point] | – |
| C/C(=N/NC(=O)c1cc(C2CC2)[nH]n1)c1cccs1 | -1.37% | 0.146 µM [falling, full curve, poor fit] | – |
| C=CCNC(=O)C12CC3(C)CC(C)(CC(C)(C3)C1)C2 | 46.6% | 18.4 µM [rising, partial curve] | 18.4 µM [rising, single point] |
| C=C(C)C(=O)OC1(C(F)(F)F)Oc2cc(C)ccc2NC1=O (stereo not drawn) | -43.3% | 1.16 µM [falling, full curve] | 0.092 µM [falling, full curve, poor fit] |
| CN(c1ccc(C(=O)N2CCN(c3ccccc3F)CC2)cc1)S(=O)(=O)c1ccccc1 | 2.86% | – | – |
| Cc1ccc(O)c(C(=O)c2cnn(C(=O)COc3ccccc3C#N)c2)c1 | 29.4% | 1.03 µM [rising, full curve, poor fit] | – |
| CC1(C)NC(=O)N(CC(=O)OCC(=O)N2CCN(S(=O)(=O)c3ccccc3)CC2)C1=O | -6.83% | – | – |
| COc1ccc(C(C(=O)NCC2CCCO2)N(Cc2ccccc2)C(=O)CNC(=O)c2ccco2)cc1OC (stereo not drawn) | 3.81% | 29.1 µM [rising, single point] | – |
| CSc1ccc(CN(C)CC(=O)NC(=O)NC(C)(C)C)cc1 | -0.354% | – | – |
| Cc1sc(NC(=O)c2ccccc2F)c(CN2CCCCC2)c1C | -7.78% | 1.84 µM [falling, partial curve] | 6.51 µM [rising, single point] |
| Cn1c(=O)n(C)c2cc(/C=N/NC(=S)NCc3ccccc3)ccc21 | 13.7% | 0.082 µM [rising, full curve, poor fit] | – |
| Cc1ccc2nc(SCC(=O)Nc3c(F)cccc3F)[nH]c2c1 | -57.6% | 23.1 µM [falling, partial curve, poor fit] | 16.4 µM [falling, partial curve] |
| O=C1CCC(C(=O)N(Cc2ccco2)C2(C(=O)NC3CCCC3)CCCCC2)N1 (stereo not drawn) | -33.2% | 1.3 µM [falling, full curve] | 0.13 µM [falling, full curve] |
| COc1ccc(/C=C2\SC(=S)N(CC(=O)NNC(=O)c3ccncc3)C2=O)cc1 | 53.2% | 4.61 µM [rising, partial curve, poor fit] | 29.1 µM [rising, single point] |
| Cc1ccccc1NS(=O)(=O)c1cc(C(=O)NCCC2=CCCCC2)ccc1C | -26.1% | 0.164 µM [falling, full curve, poor fit] | – |
| NC(=O)C1CCCN(Cc2ccc(Cl)cc2)C1 (stereo not drawn) | – | 23.1 µM [falling, partial curve] | – |
| CC1(C)CC2(CCO1)OC(=O)CC2C(=O)NCCc1ccccc1 (stereo not drawn) | 10.4% | – | – |
| CCOCCOC(=O)c1[nH]c2c(c1C)C(=O)CC(c1ccc(OC)c(OC)c1)C2 (stereo not drawn) | -37.4% | 18.4 µM [falling, single point] | 20.6 µM [falling, single point] |

Gathered by group, the compounds so far with a furan ring, fused or not (two)

| SMILES | cell number change | AC50 [1] | AC50 [2] |
| --- | --- | --- | --- |
| COc1ccc(C(C(=O)NCC2CCCO2)N(Cc2ccccc2)C(=O)CNC(=O)c2ccco2)cc1OC (stereo not drawn) | 3.81% | 29.1 µM [rising, single point] | – |
| O=C1CCC(C(=O)N(Cc2ccco2)C2(C(=O)NC3CCCC3)CCCCC2)N1 (stereo not drawn) | -33.2% | 1.3 µM [falling, full curve] | 0.13 µM [falling, full curve] |

Carrying on:

| SMILES | cell number change | AC50 [1] | AC50 [2] |
| --- | --- | --- | --- |
| CCOc1cccc2cc(C(N)=O)c(=N)oc12 | 15.1% | 3.26 µM [rising, partial curve] | – |
| CC(=O)c1ccc(N(CC(=O)NC2CCCCC2)C(=O)CNC(=O)c2ccco2)cc1 | 24.4% | 6.51 µM [rising, partial curve] | – |
| O=C(c1ccco1)c1nc2c(n1O)CCCCC2 | -17.6% | 6.51 µM [falling, single point] | 0.116 µM [falling, full curve, poor fit] |
| COCCNC(=S)NNc1ccc(Cl)c(C(=O)O)c1 | -11.3% | 29.1 µM [falling, single point] | – |
| Cc1ccc(C)c(N2CCN(C(=O)CN3C(=S)NC(C)(C)CC3C)CC2)c1 (stereo not drawn) | – | – | 0.731 µM [rising, single point] |
| CCOC(=O)CSc1nnc(-c2cc(OC)c(OC)c(OC)c2)o1 | 26.3% | – | – |
| CCOC(=O)c1nnn(-c2nonc2N)c1-c1cccc2ccccc12 | 94.3% | – | 18.4 µM [rising, single point] |
| COc1cccc2oc3cc(C#CC4(O)CCCCC4)ccc3c(=O)c12 | -37.4% | 1.16 µM [rising, single point] | 36.6 µM [falling, partial curve, poor fit] |
| COc1cccc(-c2nc(-c3ccc(NC(=O)c4cccs4)cc3)no2)c1 | 118% | – | – |
| COC(=O)C1=C(C)N(c2ccc(F)cc2)C(=O)C1 | -10.7% | – | 0.731 µM [falling, partial curve, poor fit] |
| O=S(=O)(Nc1cccc(C(F)(F)F)c1)c1cnc[nH]1 | -6.69% | 14.6 µM [falling, partial curve] | – |
| CN(CC(=O)Nc1ccc(N2CCOCC2)cc1)CC(=O)Nc1ccccc1[N+](=O)[O-] | 79.1% | 16.4 µM [rising, partial curve] | 11.6 µM [rising, partial curve] |
| COc1ccccc1NC(=O)C(=O)/C=C(\O)c1ccccc1 | -15.6% | 0.082 µM [falling, full curve, poor fit] | – |
| COCCN(Cc1nc2ccccc2c(=O)[nH]1)C(=O)COc1ccccc1-c1ccccc1 | -7.3% | – | 0.731 µM [falling, single point] |
| CC(C)CN(CC(C)C)C(=O)Nc1ccccc1F | -27.1% | 29.1 µM [falling, single point] | – |
| CCN(CC(=O)NCc1cccs1)C(=O)C(c1ccccc1)c1ccccc1 | 5.56% | 29.1 µM [rising, single point] | – |
| Clc1ccc(-c2nnn(Cc3nc4ccccc4s3)n2)cc1 | 31% | – | 29.1 µM [rising, single point] |
| Cn1c(=O)c2c(nc(N3CCCC3)n2C)n(C)c1=O | -34% | 6.51 µM [falling, full curve] | 2.31 µM [falling, partial curve] |
| Cc1c(C(=O)N(C)CCn2ccnc2C)oc2c(F)cccc12 | 13.4% | – | – |
| O=C(c1cccc(NC2=NC3CS(=O)(=O)CC3S2)c1)N1CCN(c2ccc(F)cc2)CC1 (stereo not drawn) | -1.73% | 29.1 µM [rising, single point] | – |

| SMILES | cell number change | AC50 [1] | AC50 [2] |
| --- | --- | --- | --- |
| O=C(NC(Cc1ccccc1)C(=O)O)/C(=C/c1cccc([N+](=O)[O-])c1)NC(=O)c1ccco1 (stereo not drawn) | 13.5% | – | – |
| COc1ccc(NC(=S)Nc2cccc(C(F)(F)F)c2)c(C)c1 | 24.9% | 0.1 µM [rising, full curve, poor fit] | – |
| COc1cc(NC(=O)CSc2ccc(-c3ccco3)nn2)cc(OC)c1 | 1.73% | – | – |
| CN(C)c1ccc(C(=S)N2CCCCCC2)cc1 | – | 20.6 µM [rising, partial curve] | – |
| CC1(C)C2CC=C(/C=N/NC(=O)c3ccccc3Br)C1C2 (stereo not drawn) | -33.5% | 7.31 µM [falling, partial curve] | 7.31 µM [falling, partial curve] |
| CCOC(=O)N1CCN(C(=O)c2cc(-c3ccncc3)nc3ccccc23)CC1 | 50% | – | 2.06 µM [rising, full curve, poor fit] |
| NC(=O)CC(NC(=O)c1cccc(Br)c1)c1ccc(NCCN2CCOCC2)c([N+](=O)[O-])c1 (stereo not drawn) | 1.59% | 29.1 µM [falling, single point] | – |
| O=S(=O)(NCc1ccncc1)c1ccc(S(=O)(=O)NCC2CCCO2)cc1 (stereo not drawn) | -15.4% | 2.06 µM [rising, single point] | – |
| Cc1cccc2cc(C#N)c(SCC#N)nc12 | – | – | 0.058 µM [rising, full curve, poor fit] |
| COc1ccc(O)c(C(=O)CC(=O)c2ccc(F)cc2)c1 | -56.9% | 18.4 µM [falling, single point] | 23.1 µM [falling, single point] |
| O=C(COc1ccccc1Cl)NNC(=O)c1cc(S(=O)(=O)N2CCOCC2)ccc1N1CCCC1 | -5.44% | 29.1 µM [rising, single point] | – |
| O=c1c2ccccc2nc(CSc2ncnc3nc[nH]c23)n1-c1cccc(C(F)(F)F)c1 | 19.5% | – | – |
| Cc1cccc(CCNC(=O)C2CCC(=O)N2Cc2ccc(F)cc2)c1 (stereo not drawn) | 6.92% | 29.1 µM [rising, partial curve, poor fit] | – |
| CCCCN1C(=O)C(O)(c2ccccc2)c2cc(Br)ccc21 (stereo not drawn) | -41% | 29.1 µM [falling, single point] | 16.4 µM [falling, single point] |
| COc1ccc(OC)c(N(CC(=O)N2CCOCC2)S(C)(=O)=O)c1 | 7.67% | – | – |
| COc1cc(NC(=O)c2cc(C)nc3ccccc23)cc(OC)c1OC | -0.566% | – | 0.517 µM [falling, single point] |
| COc1cc(NC(=O)c2cccs2)c(C(=O)OCC(=O)NCc2ccccc2)cc1OC | -9.51% | – | – |
| O=C(NC(=S)Nc1ccccc1O)c1ccccc1Cl | 16.2% | 16.4 µM [rising, single point] | 0.651 µM [rising, partial curve, poor fit] |
| N#Cc1c(Nc2ccccc2)sc(C(=O)c2ccc(F)cc2)c1N | -55.4% | – | 0.259 µM [falling, full curve] |
| CC(C)N1CC(C(=O)Nc2cccc([N+](=O)[O-])c2)CC1=O (stereo not drawn) | -9.85% | 0.731 µM [falling, full curve, poor fit] | – |
